# Reference: PubChem BioAssay (NCATS)
# Inconclusive results, whose numbers are uncertain, are shown with a selection of clear calls. Potencies of inconclusive entries are doubtful fits and often do not repeat. The source made the active and inactive calls. Calls come from the whole dose curve; as a rule, active = well fitted cell-killing curve with a large enough effect; inconclusive = small, poorly fitted or top-dose-only effect, or effect the other way; inactive = no such curve, though single readings can be large or run the other way.
# Experiments:
# [1] = Quantitative High-Throughput drug screen in 47 multiple myeloma cell lines against the NCATS MIPE library collection: RPMI8226_ATCC cell viability assay (AID 1919871); conditions: RPMI8226 myeloma viability, CellTiter-Glo ATP luminescence, 48 h; viability (% of control): at 45.8 µM (top of the series); note: nearly all actives have a fitted effect of over 30% in size
# Procedure, shortened: (§1)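 500 cells/well per myeloma line exposed to pinned MIPE 4.0 compounds for 48 h at 37 °C, 5% CO2. Viability read as ATP by CellTiter-Glo luminescence, normalised to DMSO-only (100%) and media-only (0%) wells.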
# [2] = Quantitative High-Throughput drug screen in 47 multiple myeloma cell lines against the NCATS MIPE library collection: OPM2_DSMZ cell viability assay (AID 1919872); conditions: OPM2 myeloma viability, CellTiter-Glo ATP luminescence, 48 h; viability (% of DMSO): at 45.8 µM (top of the series); note: nearly all actives have a fitted effect of over 30% in size
# Procedure, shortened: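 Primary qHTS used for cherry-picking: cells at 500/well, library compounds for 48 h (37C, 5% CO2), luminescent ATP assay.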
# [3] = Quantitative High-Throughput drug screen in 47 multiple myeloma cell lines against the NCATS MIPE library collection: KMS11_JCRBsus cell viability assay (AID 1919873); note: nearly all actives have a fitted effect of over 50% in size
# Procedure, shortened: as §1
# [4] = Quantitative High-Throughput drug screen in 47 multiple myeloma cell lines against the NCATS MIPE library collection: KMS28BM_JCRB cell viability assay (AID 1919874); note: nearly all actives have a fitted effect of over 35% in size
# Procedure, shortened: as §1
# Potency is the fitted concentration of half-maximal effect.
Compound,Potency [1],Potency [2],Potency [3],Potency [4],viability (% of DMSO) [2]
Cc1nc(NC(=O)N2CCC[C@@H]2C(N)=O)sc1-c1csc(C(C)(C)C)n1,"inconclusive: 7.43 µM [cytotoxic, partial curve]","inconclusive: 18.7 µM [cytotoxic, partial curve]","inconclusive: 0.187 µM [cytotoxic, full curve]","inconclusive: 4.18 µM [cytotoxic, partial curve]",
COc1cc2ncnc(Nc3cccc(Br)c3)c2cc1OC,"inconclusive: 2.35 µM [cytotoxic, full curve, poor fit]","inconclusive: 37.2 µM [cytotoxic, single point]","inconclusive: 18.7 µM [cytotoxic, partial curve]","inconclusive: 37.2 µM [cytotoxic, single point]",
C#Cc1cccc(Nc2ncnc3cc(OCCOC)c(OCCO)cc23)c1,"inconclusive: 23.5 µM [cytotoxic, partial curve]","inconclusive: 37.2 µM [cytotoxic, single point]",,active: 8.33 µM,
Cc1ccc(S(=O)(=O)Nc2nc3ccccc3nc2Nc2ccc3nsnc3c2)cc1,"inconclusive: 8.12 µM [cytotoxic, partial curve]","inconclusive: 11.5 µM [cytotoxic, partial curve]",,"inconclusive: 10.2 µM [cytotoxic, partial curve]",
OC(Cn1cncn1)(Cn1cncn1)c1ccc(F)cc1F,active: 5.26 µM,"inconclusive: 4.69 µM [cytotoxic, partial curve, poor fit]",,inactive,
CCCCCCCN(CC)CCCC(O)c1ccc(NS(C)(=O)=O)cc1 (stereo not given),inactive,,"inconclusive: 0.0372 µM [rising, full curve]",inactive,inconclusive: 133%
COc1cccc2c1C(=O)c1c(O)c3c(c(O)c1C2=O)C[C@@](O)(C(=O)CO)C[C@H]3O[C@H]1C[C@H](N)[C@H](O)[C@H](C)O1,active: 0.235 µM,active: 1.18 µM,,active: 0.296 µM,
CCOC(=O)C1=C(C)NC2=C(C(=O)CC(C)(C)C2)C1c1ccc(-c2ccccc2)cc1 (stereo not given),active: 23.5 µM,"inconclusive: 10.5 µM [cytotoxic, partial curve, poor fit]",,"inconclusive: 23.5 µM [cytotoxic, partial curve]",
Cc1cc(Cl)ccc1OCCCC(=O)NO,inactive,inactive,"inconclusive: 20.9 µM [cytotoxic, partial curve]","inconclusive: 9.35 µM [cytotoxic, partial curve]",
c1ccc(CNc2nc(NCc3ccccc3)c3ccccc3n2)cc1,"inconclusive: 29.6 µM [cytotoxic, single point]","inconclusive: 37.2 µM [cytotoxic, single point]",active: 11.8 µM,active: 11.8 µM,
COc1cc(N2CCC(C(N)=O)CC2)ccc1Nc1nc(N)c(Cl)c(Nc2ccccc2S(=O)(=O)C(C)C)n1,"inconclusive: 0.743 µM [cytotoxic, full curve]","inconclusive: 2.09 µM [cytotoxic, full curve]","inconclusive: 0.166 µM [cytotoxic, full curve]",,
O=C(c1ccc(C(=O)N2CCC(N3CCCC3)CC2)c(Nc2ccccc2)c1)N1CCC(N2CCCC2)CC1,inactive,"inconclusive: 11.8 µM [cytotoxic, single point]",,"inconclusive: 3.32 µM [cytotoxic, full curve, poor fit]",
C#C[C@]1(O)CC[C@@H]2[C@@H]3CCc4cc(O)ccc4[C@H]3CC[C@@]21C,"inconclusive: 23.5 µM [cytotoxic, partial curve]","inconclusive: 33.2 µM [cytotoxic, single point]",active: 10.5 µM,,
CN(Cc1cnc2nc(N)nc(N)c2n1)c1ccc(C(=O)N[C@@H](CCC(=O)O)C(=O)O)cc1,"inconclusive: 0.187 µM [cytotoxic, full curve, poor fit]","inconclusive: 0.0469 µM [cytotoxic, full curve, poor fit]",,"inconclusive: 0.0418 µM [cytotoxic, full curve, poor fit]",
CC(C[N+](C)(C)C)OC(N)=O (stereo not given),inactive,"inconclusive: 20.9 µM [cytotoxic, partial curve, poor fit]","inconclusive: 8.33 µM [cytotoxic, single point]",,

# Fetched by structure from the list above:
Compound,Potency [1],Potency [2],Potency [3],Potency [4],viability (% of DMSO) [2]
Cc1nc(NC(=O)N2CCC[C@@H]2C(N)=O)sc1-c1csc(C(C)(C)C)n1,"inconclusive: 7.43 µM [cytotoxic, partial curve]","inconclusive: 18.7 µM [cytotoxic, partial curve]","inconclusive: 0.187 µM [cytotoxic, full curve]","inconclusive: 4.18 µM [cytotoxic, partial curve]",
CCCCCCCN(CC)CCCC(O)c1ccc(NS(C)(=O)=O)cc1 (stereo not given),inactive,,"inconclusive: 0.0372 µM [rising, full curve]",inactive,inconclusive: 133%
